{"source": "PubChem BioAssay AID1259308 – NCATS – 2017", "assay": "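Genes whose loss raises luciferase production in HEK293 cells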 (primary screen)", "cell system": "human HEK293 embryonic kidney cells stably expressing firefly luciferase (HEK-CMV-Luc2-Hygro)", "reagents": "single siRNA against human genes, 0.8 pmol siRNA per well", "timing": "72 h", "read-out": "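Luciferase light (ONE-Glo) measured on one replicate plate set and viability (CellTiter-Glo) on the other, scaled to a negative control siRNA, with robust z-scores and luciferase per cell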", "reading the numbers": "total luciferase, z-score and total luciferase, % of control: higher = more reporter protein produced", "call rule": "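An siRNA counts as active if its total luciferase robust z-score exceeds 3; genes with two or more such siRNAs out of three were retested with fresh siRNAs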", "meaning of the calls": "active = raised luciferase; inactive = no rise", "note": "In all, the deposit lists about 59,000 reagents; below is a part drawn at random. About 1,510 of them (2.6%) were called active. 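Calls use total luciferase alone and ignore viability, so some active siRNAs may act by altering cell number.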 Entries without a mark were called inactive. The numbers tell different reagents against one gene apart. Not all columns of the deposit are shown."}
{"gene knocked down": "LINC00477", "reagent no.": 1, "total luciferase, z-score": 2, "total luciferase, % of control": 122}
{"gene knocked down": "LINC00477", "reagent no.": 2, "total luciferase, z-score": 1.58, "total luciferase, % of control": 113}
{"gene knocked down": "LINC00477", "reagent no.": 3, "total luciferase, z-score": -1.12, "total luciferase, % of control": 59.6}
{"gene knocked down": "ATF6", "reagent no.": 1, "total luciferase, z-score": -0.163, "total luciferase, % of control": 78.7}
{"gene knocked down": "ATF6", "reagent no.": 2, "total luciferase, z-score": 0.53, "total luciferase, % of control": 92.4}
{"gene knocked down": "ATF6", "reagent no.": 3, "total luciferase, z-score": -0.291, "total luciferase, % of control": 76.1}
{"gene knocked down": "CTDSPL2", "reagent no.": 1, "total luciferase, z-score": -2.04, "total luciferase, % of control": 41.4}
{"gene knocked down": "CTDSPL2", "reagent no.": 2, "total luciferase, z-score": -0.738, "total luciferase, % of control": 67.2}
{"gene knocked down": "CTDSPL2", "reagent no.": 3, "total luciferase, z-score": -0.257, "total luciferase, % of control": 76.8}
{"gene knocked down": "THEM4", "reagent no.": 1, "total luciferase, z-score": 0.598, "total luciferase, % of control": 93.8}
{"gene knocked down": "THEM4", "reagent no.": 2, "total luciferase, z-score": 0.36, "total luciferase, % of control": 89}
{"gene knocked down": "THEM4", "reagent no.": 3, "total luciferase, z-score": -0.996, "total luciferase, % of control": 62.1}
{"gene knocked down": "IKBKB", "reagent no.": 1, "total luciferase, z-score": -0.127, "total luciferase, % of control": 79.4}
{"gene knocked down": "IKBKB", "reagent no.": 2, "total luciferase, z-score": 1.13, "total luciferase, % of control": 104}
{"gene knocked down": "IKBKB", "reagent no.": 3, "total luciferase, z-score": 0.52, "total luciferase, % of control": 92.2}
{"gene knocked down": "SERINC4", "reagent no.": 1, "total luciferase, z-score": -0.748, "total luciferase, % of control": 67}
{"gene knocked down": "SERINC4", "reagent no.": 2, "total luciferase, z-score": -0.209, "total luciferase, % of control": 77.7}
{"gene knocked down": "SERINC4", "reagent no.": 3, "total luciferase, z-score": -1.23, "total luciferase, % of control": 57.4}
{"gene knocked down": "FAM81A", "reagent no.": 1, "total luciferase, z-score": 0.485, "total luciferase, % of control": 91.5}
{"gene knocked down": "FAM81A", "reagent no.": 2, "total luciferase, z-score": -0.00853, "total luciferase, % of control": 81.7}
{"gene knocked down": "FAM81A", "reagent no.": 3, "total luciferase, z-score": 0.469, "total luciferase, % of control": 91.2}
{"gene knocked down": "ATP5PD", "reagent no.": 1, "total luciferase, z-score": 1.18, "total luciferase, % of control": 105}
{"gene knocked down": "ATP5PD", "reagent no.": 2, "total luciferase, z-score": -1.48, "total luciferase, % of control": 52.5}
{"gene knocked down": "ATP5PD", "reagent no.": 3, "total luciferase, z-score": 2.42, "total luciferase, % of control": 130}
{"gene knocked down": "TMCO6", "reagent no.": 1, "total luciferase, z-score": 1.09, "total luciferase, % of control": 103}
{"gene knocked down": "TMCO6", "reagent no.": 2, "total luciferase, z-score": -0.187, "total luciferase, % of control": 78.2}
{"gene knocked down": "TMCO6", "reagent no.": 3, "total luciferase, z-score": 1.99, "total luciferase, % of control": 121}
{"gene knocked down": "ZPLD1", "reagent no.": 1, "total luciferase, z-score": 0.0714, "total luciferase, % of control": 83.3}
{"gene knocked down": "ZPLD1", "reagent no.": 2, "total luciferase, z-score": -0.537, "total luciferase, % of control": 71.2}
{"gene knocked down": "ZPLD1", "reagent no.": 3, "total luciferase, z-score": 0.12, "total luciferase, % of control": 84.3}
{"gene knocked down": "CARS1", "reagent no.": 1, "total luciferase, z-score": -1.02, "total luciferase, % of control": 61.5}
{"gene knocked down": "CARS1", "reagent no.": 2, "total luciferase, z-score": -0.397, "total luciferase, % of control": 74}
{"gene knocked down": "CARS1", "reagent no.": 3, "total luciferase, z-score": 0.823, "total luciferase, % of control": 98.3}

Sorted by “total luciferase, % of control” (ascending): some entries from above
{"gene knocked down": "SERINC4", "reagent no.": 3, "total luciferase, z-score": -1.23, "total luciferase, % of control": 57.4}
{"gene knocked down": "SERINC4", "reagent no.": 1, "total luciferase, z-score": -0.748, "total luciferase, % of control": 67}
{"gene knocked down": "SERINC4", "reagent no.": 2, "total luciferase, z-score": -0.209, "total luciferase, % of control": 77.7}
{"gene knocked down": "FAM81A", "reagent no.": 1, "total luciferase, z-score": 0.485, "total luciferase, % of control": 91.5}
{"gene knocked down": "IKBKB", "reagent no.": 3, "total luciferase, z-score": 0.52, "total luciferase, % of control": 92.2}
